The source of these data is article PMC6771824.

Results are given in words; binding and its absence hold for the method and conditions named. Binding can be weak; no strength is given.

The experiment deals with T1, PCGF2 (human) (UniProt P35227).
T1 sequence: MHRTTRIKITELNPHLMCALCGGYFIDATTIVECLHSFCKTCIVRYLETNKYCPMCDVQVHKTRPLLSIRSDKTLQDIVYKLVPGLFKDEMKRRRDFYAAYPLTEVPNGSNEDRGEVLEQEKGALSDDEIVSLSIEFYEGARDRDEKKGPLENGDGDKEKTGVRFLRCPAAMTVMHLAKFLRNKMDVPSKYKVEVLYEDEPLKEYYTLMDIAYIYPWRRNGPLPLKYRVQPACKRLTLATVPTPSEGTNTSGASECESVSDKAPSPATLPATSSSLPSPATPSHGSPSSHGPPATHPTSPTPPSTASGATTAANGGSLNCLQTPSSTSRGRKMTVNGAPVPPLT
Briefly: cross-linking; about 50 ug of purified ΔPRC1.2 (four subunits) cross-linked with H12/D12 DSS, 37 °C, 30 min; lysine-lysine links, Cα-Cα maximum distance 27 Å; LC-MS/MS, xQuest/xProphet, FDR 0.05; both purified.

“L307R-ΔPHC2 (human) (domain or fragment)”: the binding entry is “binds”.
